Reference: patent US20050251879A1
No constants are given. Whether binding was seen depends on the method and setting. Some binding calls cover weakened binding; strength is not graded here. Tags and fused reporters may be left off the sequences shown.

Protein sequences, listed by entry. Tags and fused reporters are not part of them. Lines headed by an entry give the natural chain unless they say otherwise; changes in a name come on top.
UniProt P04386: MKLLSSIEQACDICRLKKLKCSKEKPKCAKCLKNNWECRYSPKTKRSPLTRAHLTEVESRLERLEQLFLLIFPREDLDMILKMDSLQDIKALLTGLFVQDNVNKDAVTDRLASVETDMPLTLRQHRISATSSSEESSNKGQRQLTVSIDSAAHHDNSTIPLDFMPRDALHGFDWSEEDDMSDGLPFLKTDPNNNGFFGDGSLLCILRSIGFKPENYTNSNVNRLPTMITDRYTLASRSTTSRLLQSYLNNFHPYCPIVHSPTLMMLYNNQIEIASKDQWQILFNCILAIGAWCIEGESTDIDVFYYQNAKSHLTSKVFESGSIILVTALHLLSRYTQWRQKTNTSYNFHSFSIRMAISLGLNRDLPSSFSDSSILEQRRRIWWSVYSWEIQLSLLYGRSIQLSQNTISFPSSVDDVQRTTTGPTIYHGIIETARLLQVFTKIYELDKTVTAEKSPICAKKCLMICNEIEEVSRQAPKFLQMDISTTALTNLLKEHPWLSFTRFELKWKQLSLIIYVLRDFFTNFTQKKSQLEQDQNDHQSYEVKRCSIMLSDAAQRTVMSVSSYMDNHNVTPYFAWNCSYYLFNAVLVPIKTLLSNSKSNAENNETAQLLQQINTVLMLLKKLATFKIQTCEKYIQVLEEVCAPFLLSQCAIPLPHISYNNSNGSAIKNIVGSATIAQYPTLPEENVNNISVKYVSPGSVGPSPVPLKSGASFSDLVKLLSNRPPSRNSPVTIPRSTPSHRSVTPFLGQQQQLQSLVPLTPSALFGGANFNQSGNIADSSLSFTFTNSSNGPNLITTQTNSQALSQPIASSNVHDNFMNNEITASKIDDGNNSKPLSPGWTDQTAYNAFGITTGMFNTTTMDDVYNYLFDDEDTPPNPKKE

Molecular target: SNF1 fused with the Gal4 binding domain (pBD-SNF1) (UniProt P04386)
Test: yeast two-hybrid, lacZ activity, positive control

B1: SNF4 fused with the Gal4 activation domain (pAD-SNF4) (protein)
chain: MKPTQDSQEKVSIEQQLAVESIRKFLNSKTSYDVLPVSYRLIVLDTSLLVKKSLNVLLQNSIVSAPLWDSKTSRFAGLLTTTDFINVIQYYFSNPDKFELVDKLQLDGLKDIERALGVDQLDTASIHPSRPLFEACLKMLESRSGRIPLIDQDEETHREIVVSVLTQYRILKFVALNCRETHFLKIPIGDLNIITQDNMKSCQMTTPVIDVIQMLTQGRVSSVPIIDENGYLINVYEAYDVLGLIKGGIYNDLSLSVGEALMRRSDDFEGVYTCTKNDKLSTIMDNIRKARVHRFFVVDDVGRLVGVLTLSDILKYILLGSN
binding: binds
